PubChem BioAssay AID504793 | Drosophila RNAi Screening Center – 2011
Test: 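Genes required for cells to halt at G2/M after double-strand DNA breaks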 (primary screen). Cells: Drosophila S2R+ cells. Reagents: long dsRNA against Drosophila genes, about 0.25 µg dsRNA per well. Duration: 4 days of dsRNA, then 4 hours of drug before read-out. Challenge: doxorubicin 0.5 µM for 4 hours to cause double-strand breaks, in cells also given a low, harmless dose of dsRNA against nbs to sensitise the assay. Measurement: 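Per-well count of mitotic cells stained for phospho-histone H3 after doxorubicin exposure, used as mitotic index; counts are raw and not normalised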. Scale: mitotic cells: higher = more cells in mitosis, weaker G2 arrest. Rule for the call: 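Genes are called active only when high mitotic counts were reproduced with independent dsRNAs and mitosis was checked for delay without damage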. Meaning of the calls: active = confirmed in follow-up tests; inactive = not confirmed.
The deposit covers about 23,000 reagents; below is an unselected part of those that have a named target and a result. In the full data, 62 (0.27%) got an active call. 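Calls come from follow-up tests whose scores are not deposited, so confirmed genes may have low counts here; counts are not normalised per plate.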 Raw values vary from plate to plate and are shown uncorrected. A number with no mark means an inactive call. The numbers tell different reagents against one gene apart. A plus sign joins genes that one reagent is predicted to hit.

dbf (doublefault) #1 gave mitotic cells, replicate 1 = 3.
Against dbf (doublefault) #2, the values are mitotic cells, replicate 1 = 6.
Silencing of His3:CG33818 + His3:CG33857 + His3:CG33806 + 21 more resulted in: mitotic cells, replicate 1 = 7.
Against CG13564, the values are mitotic cells, replicate 1 = 5.
Silencing of CG31677 resulted in: mitotic cells, replicate 1 = 14.
With knock-down of Naa15-16 (N(alpha)-acetyltransferase 15/16) #1, the record shows mitotic cells, replicate 1 = 12.
Depletion of Naa15-16 (N(alpha)-acetyltransferase 15/16) #2 came out at: mitotic cells, replicate 1 = 7.
Arglu1 (Arginine and glutamate rich 1) #1 scored mitotic cells, replicate 1 = 13.
Silencing of Arglu1 (Arginine and glutamate rich 1) #2 gave: mitotic cells, replicate 1 = 2.
For gw (gawky) #1, the values are mitotic cells, replicate 1 = 7.
gw (gawky) #2 showed mitotic cells, replicate 1 = 4.
Against gw (gawky) #3, the values are mitotic cells, replicate 1 = 2.
Indy (I'm not dead yet) showed mitotic cells, replicate 1 = 7.
Depletion of PEK (pancreatic eIF-2alpha kinase) gave: mitotic cells, replicate 1 = 6.
Depletion of Acp32CD (Accessory gland protein 32CD) #1 came out at: mitotic cells, replicate 1 = 4.
Against Acp32CD (Accessory gland protein 32CD) #2, the entry reads mitotic cells, replicate 1 = 5.
Larp4B (La-related protein 4B) #1 gave mitotic cells, replicate 1 = 7.
Against Larp4B (La-related protein 4B) #2, the entry reads mitotic cells, replicate 1 = 4.
CG18747 #1 scored mitotic cells, replicate 1 = 2.
After knock-down of CG18747 #2 the results were mitotic cells, replicate 1 = 7.
Against Dyrk3 (Dual-specificity tyrosine phosphorylation-regulated kinase 3), the values are mitotic cells, replicate 1 = 9.
Depletion of CAH7 (Carbonic anhydrase 7) came out at: mitotic cells, replicate 1 = 7.
After knock-down of Pcl (Polycomblike) #1, the record shows mitotic cells, replicate 1 = 5.
Knock-down of Pcl (Polycomblike) #2 resulted in: mitotic cells, replicate 1 = 1.
Depletion of CG15824 #1 resulted in: mitotic cells, replicate 1 = 4.
CG15824 #2 showed mitotic cells, replicate 1 = 6.
qsm (quasimodo) #1 gave mitotic cells, replicate 1 = 9.
qsm (quasimodo) #2 gave mitotic cells, replicate 1 = 5.
qsm (quasimodo) #3 scored mitotic cells, replicate 1 = 8.
CG9297 #1 scored mitotic cells, replicate 1 = 7.
Silencing of CG9297 #2 came out at: mitotic cells, replicate 1 = 4.
Silencing of mRpL41 (mitochondrial ribosomal protein L41) #1 gave: mitotic cells, replicate 1 = 4.
Against mRpL41 (mitochondrial ribosomal protein L41) #2 the deposit lists mitotic cells, replicate 1 = 13.
For CG13055 #1, the entry reads mitotic cells, replicate 1 = 6.
Knock-down of CG13055 #2 gave: mitotic cells, replicate 1 = 2.

4 successive entries already listed, quoted:
Naa15-16 (N(alpha)-acetyltransferase 15/16) #1 — mitotic cells, replicate 1: 12
Naa15-16 (N(alpha)-acetyltransferase 15/16) #2 — mitotic cells, replicate 1: 7
Arglu1 (Arginine and glutamate rich 1) #1 — mitotic cells, replicate 1: 13
Arglu1 (Arginine and glutamate rich 1) #2 — mitotic cells, replicate 1: 2
